Measured values: patent EP4674870A1 (Sunshine Guojian Pharmaceutical (Shanghai) Co., Ltd., dated 2026)
Results are given in words; binding and its absence hold for the method and conditions named. Some binding calls cover weakened binding; strength is not graded here.

Legend:
[1] = target: T1, Cynomolgus(Rhesus)-TL1A (cynomolgus monkey) (UniProt G7PRK8); assay: ELISA
T1 sequence: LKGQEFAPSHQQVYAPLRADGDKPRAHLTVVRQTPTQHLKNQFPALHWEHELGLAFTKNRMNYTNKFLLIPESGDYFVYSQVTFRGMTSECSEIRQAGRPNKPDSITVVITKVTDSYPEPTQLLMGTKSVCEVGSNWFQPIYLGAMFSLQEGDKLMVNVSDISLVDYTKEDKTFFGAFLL

[2] = target: T2, Rat-TL1A (rat) (UniProt Q8K3Y7); assay: ELISA
T2 sequence (looked up): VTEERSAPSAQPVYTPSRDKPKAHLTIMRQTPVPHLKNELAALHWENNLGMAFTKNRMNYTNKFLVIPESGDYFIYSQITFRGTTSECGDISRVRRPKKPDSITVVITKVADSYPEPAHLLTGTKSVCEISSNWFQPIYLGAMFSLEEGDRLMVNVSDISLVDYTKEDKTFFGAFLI

B1: humanized antibody 72851 (antibody, human IgG1, kappa, L234A L235A, V domains shown)
VH: QVQLVQSGAEVKKPGASVKVSCKASGYSFTGYTMNWVRQAPGQNLEWIGLINPYSGGTNYNQKFKGRATLTVDTSISTAYMELSRLRSDDTAVYYCASIYQRHDGIAYWGQGTLVTVSS
VL: EIVLTQSPDFQSVTPKEKVTITCSASSSVNYMHWYQQKPDQSPKLLIKDTSKLASGVPSRFSGSGSGTDFTLTINSLEAEDAATYYCQQWSSSPYTFGGGTKVEIKR
notes: Humanized from 728H4D9; human IgG1/kappa
binding [1]: binds | binding [2]: binds
